# Measurements reported in PubChem BioAssay AID1259308 (NCATS, 2017).
# Screen: 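Candidate targets for better recombinant protein yield in mammalian cells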 (primary screen)
# Cells: human HEK293 embryonic kidney cells stably expressing firefly luciferase (HEK-CMV-Luc2-Hygro)
# Reagent: single siRNA against human genes, 0.8 pmol siRNA per well
# Time to read-out: 72 h
# Measurement: 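Reporter luminescence and viable-cell signal on separate replicate plates, given as percent of non-targeting control and median/MAD z-scores, plus per-cell luciferase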
# Scale: total luciferase, z-score and total luciferase, % of control: higher = more reporter protein produced; luciferase per cell, z-score: higher = more reporter output per viable cell
# Call rule: 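An siRNA counts as active if its total luciferase robust z-score exceeds 3; genes with two or more such siRNAs out of three were retested with fresh siRNAs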
# Calls: active = raised luciferase; inactive = no rise
# The deposit covers about 59,000 reagents; below is a random part of them. About 1,510 of all reagents (2.6%) were called active. 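Calls use total luciferase alone and ignore viability, so some active siRNAs may act by altering cell number.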 Reagents against one gene are numbered here. Further read-outs or replicates are left out here. Reagent sequences are not shown.
gene knocked down,reagent,"total luciferase, z-score","total luciferase, % of control","luciferase per cell, z-score",activity call
SNRPD2P1 (small nuclear ribonucleoprotein D2 pseudogene 1),1,2.1,124,4.26,inactive
SNRPD2P1 (small nuclear ribonucleoprotein D2 pseudogene 1),2,4.21,166,4.97,active
SNRPD2P1 (small nuclear ribonucleoprotein D2 pseudogene 1),3,2.46,131,1.37,inactive
"DCBLD1 (discoidin, CUB and LCCL domain containing 1)",1,-0.267,76.6,-0.0871,inactive
"DCBLD1 (discoidin, CUB and LCCL domain containing 1)",2,2.22,126,1.9,inactive
"DCBLD1 (discoidin, CUB and LCCL domain containing 1)",3,-0.0519,80.9,0.0819,inactive
TMEM263 (transmembrane protein 263),1,-1.29,56.3,-1.4,inactive
TMEM263 (transmembrane protein 263),2,0.557,93,1.27,inactive
TMEM263 (transmembrane protein 263),3,-0.322,75.5,-0.346,inactive
SFTPD (surfactant protein D),1,-0.954,62.9,-0.738,inactive
SFTPD (surfactant protein D),2,-0.833,65.3,-1.35,inactive
SFTPD (surfactant protein D),3,-1.72,47.8,-1.86,inactive
INTS11 (integrator complex subunit 11),1,2.14,124,1.49,inactive
INTS11 (integrator complex subunit 11),2,2.07,123,1.59,inactive
INTS11 (integrator complex subunit 11),3,-0.768,66.6,-0.582,inactive
CDH11 (cadherin 11),1,-0.3,75.9,-0.654,inactive
CDH11 (cadherin 11),2,-0.0373,81.1,0.109,inactive
CDH11 (cadherin 11),3,-0.74,67.2,-1.13,inactive
CCDC12 (coiled-coil domain containing 12),1,0.12,84.3,0.686,inactive
CCDC12 (coiled-coil domain containing 12),2,0.459,91,0.32,inactive
CCDC12 (coiled-coil domain containing 12),3,4.91,180,3.99,active
C16orf90 (chromosome 16 open reading frame 90),1,0.609,94,1.54,inactive
C16orf90 (chromosome 16 open reading frame 90),2,0.452,90.9,1.1,inactive
C16orf90 (chromosome 16 open reading frame 90),3,1.37,109,1.71,inactive

Just “total luciferase, % of control” (3 entries from above):
INTS11 (integrator complex subunit 11) #2 = 123
INTS11 (integrator complex subunit 11) #3 = 66.6
CDH11 (cadherin 11) #1 = 75.9
